Results published in publication PMC7819943, “Rice protein-binding microarrays: a tool to detect cis-acting elements near promoter regions in rice”.
This is one part of the list.

Each sequence was assayed against T1, OsSMF1 (Oryza sativa, UniProt Q6ZLB0 1-436) (assay: protein-binding microarray (RPBM); PBS, 2% BSA, 51.3 ng/ul salmon testes DNA, 50 uM zinc acetate, 200 nM TF, 25 C, 1 h; high values mean tight binding). Conditions: protein: recombinant; tags: N-terminal polyhistidine and DsRed monomer fusion (pET32a); chain copies: 2; label: CyDye5-dUTP incorporated in the synthesized complementary strand; 3' TTTTT single-stranded linker to array surface; dsDNA, one strand shown.
T1 sequence: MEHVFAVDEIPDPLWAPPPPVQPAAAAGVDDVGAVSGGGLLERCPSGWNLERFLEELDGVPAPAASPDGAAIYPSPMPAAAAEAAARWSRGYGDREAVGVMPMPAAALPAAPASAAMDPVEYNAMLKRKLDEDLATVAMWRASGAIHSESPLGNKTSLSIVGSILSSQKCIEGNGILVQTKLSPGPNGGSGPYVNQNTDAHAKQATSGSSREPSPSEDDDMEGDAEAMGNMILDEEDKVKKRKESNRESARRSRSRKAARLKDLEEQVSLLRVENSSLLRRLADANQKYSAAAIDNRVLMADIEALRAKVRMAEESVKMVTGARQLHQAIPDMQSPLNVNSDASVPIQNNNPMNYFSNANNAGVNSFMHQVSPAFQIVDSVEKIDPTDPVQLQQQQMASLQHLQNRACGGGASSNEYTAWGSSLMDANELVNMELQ
Procedure, shortened: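 Using Ni–NTA, transcription factors fused N-terminally to polyhistidine and DsRed were purified after expression in E. coli BL21-CodonPlus. These were incubated at 200 nM with a blocked, double-stranded custom Agilent array for 1 h at 25 °C in a buffer containing 50 µM zinc acetate, and the array was washed. The binding signal is per-feature fluorescence intensity (arbitrary units) on an Axon 4000B scanner.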

Sequence	binding signal
ATCTCTGGTTTCACCGGTGACGACGCGACAAGGCGGAACACGGAGTCACCTAGTGCAG	3800 fluorescence intensity (a.u.)
TTGTCCATCAATGGAGATGATGATGCCATGATCAAATGATCGGAGTCACCTAGTGCAG	3370 fluorescence intensity (a.u.)
CGCTTGCGCTGTGGTGCTGCGGCGCCGCCGTCGTGGCGTCCGGAGTCACCTAGTGCAG	4800 fluorescence intensity (a.u.)
GGTCAGACCGCACCGTGACACGTCGACTGCAACCTAGCGGCGGAGTCACCTAGTGCAG	13600 fluorescence intensity (a.u.)
CCGCTTCTGAGCACACGCTGCACGTAATCGCGAACGCGCGCGGAGTCACCTAGTGCAG	5300 fluorescence intensity (a.u.)
AATGTGTCCTAGCTCCCCTTGAATGGAGCACTGACGTTGCCGGAGTCACCTAGTGCAG	4250 fluorescence intensity (a.u.)
CTACTGGGCCCACGCGTCGGCGACATGTGGCAGGGAGGGTCGGAGTCACCTAGTGCAG	4560 fluorescence intensity (a.u.)
TACGCATCGGCGAGAGACGGCAATGCGTGGCAAGCTGCGACGGAGTCACCTAGTGCAG	4140 fluorescence intensity (a.u.)
CGACTCCAACGCGAGATCGCCACGTCGTGCCAACCAGCTCCGGAGTCACCTAGTGCAG	5980 fluorescence intensity (a.u.)
GTGAGAATTATTCCACATAAGAAAGTAGTAAGAAGGATGCCGGAGTCACCTAGTGCAG	26900 fluorescence intensity (a.u.)
CACCGTGGAAGGCCGGACGGTTGATGAGGTCATACGCTAACGGAGTCACCTAGTGCAG	3450 fluorescence intensity (a.u.)
ATGAAATTTGGTCGGCCACTCTTTCTGCCGACCTGGCAAACGGAGTCACCTAGTGCAG	4070 fluorescence intensity (a.u.)
GTGGTGTGTGCATATATATCTTCCATGTAATAAAACAAATCGGAGTCACCTAGTGCAG	21400 fluorescence intensity (a.u.)
CAATATACTAACAAATTGTGACATGTCTAAGGTTTGGCATCGGAGTCACCTAGTGCAG	4600 fluorescence intensity (a.u.)
ACCGCACCTCCACATCACCACATGCCTCATCGTTGCTCCACGGAGTCACCTAGTGCAG	8700 fluorescence intensity (a.u.)
ATTCGGTGGGTTGAGGCAGTGATGTGGTGAGAGGAGAAAGCGGAGTCACCTAGTGCAG	3440 fluorescence intensity (a.u.)
GCGCCCCAACTTCCAACTCACAGTTCCTCCTCGTCATTCACGGAGTCACCTAGTGCAG	3520 fluorescence intensity (a.u.)
AGCGTCACCTCAATGCCACGTGTGATAAAGACCTAGTTAACGGAGTCACCTAGTGCAG	17200 fluorescence intensity (a.u.)
GGATGGCCCACCACGTCAGCATCTGCACGTTTTGCTTCATCGGAGTCACCTAGTGCAG	20900 fluorescence intensity (a.u.)
AACCACTGTAGAATTACACACAAGCAGTGCCAAGGGCCCACGGAGTCACCTAGTGCAG	3480 fluorescence intensity (a.u.)
TGTCATGTTTATTATCTTAATTTTCTGGATTAAAATATACCGGAGTCACCTAGTGCAG	21800 fluorescence intensity (a.u.)
GATCCGAATGACGCCACAGTAAAGTAATCCATAGTATCTACGGAGTCACCTAGTGCAG	27300 fluorescence intensity (a.u.)
TAGTTGTTGCTGAATTATTCTAGTACTGCGAGAAGCTGTGCGGAGTCACCTAGTGCAG	26300 fluorescence intensity (a.u.)
CTCACCGTTGGATCGCGCGCGCGAGAGAGAGAGACGCCTTCGGAGTCACCTAGTGCAG	3320 fluorescence intensity (a.u.)
CTTGAGGTCATCCCTGTCATTGATCTCTACAAGTTCGAGCCGGAGTCACCTAGTGCAG	3230 fluorescence intensity (a.u.)
ACGGCTGCCTCCATTGTTGCCGTGGCAACAACCTCGTCGTCGGAGTCACCTAGTGCAG	3430 fluorescence intensity (a.u.)
CGGCCGGTGAAGGTGAGTCAGCGGACGGTGGAGAGGGAGGCGGAGTCACCTAGTGCAG	6040 fluorescence intensity (a.u.)

As a short view, part of the list above:
Sequence	binding signal
TTGTCCATCAATGGAGATGATGATGCCATGATCAAATGATCGGAGTCACCTAGTGCAG	3370 fluorescence intensity (a.u.)
CGCTTGCGCTGTGGTGCTGCGGCGCCGCCGTCGTGGCGTCCGGAGTCACCTAGTGCAG	4800 fluorescence intensity (a.u.)
GGTCAGACCGCACCGTGACACGTCGACTGCAACCTAGCGGCGGAGTCACCTAGTGCAG	13600 fluorescence intensity (a.u.)
CCGCTTCTGAGCACACGCTGCACGTAATCGCGAACGCGCGCGGAGTCACCTAGTGCAG	5300 fluorescence intensity (a.u.)

Going on with the list:

Sequence	binding signal
TTTGCATAGAAATGTGACATGGCATGTCCATGTGGCGATTCGGAGTCACCTAGTGCAG	10900 fluorescence intensity (a.u.)
ATACATTGTCAGCCTGTCATGTGCAATGCTATTTATGTCCCGGAGTCACCTAGTGCAG	3950 fluorescence intensity (a.u.)
CTAGATAACAAGACGCATTACCAAGTAGCCAACACCACGCCGGAGTCACCTAGTGCAG	37500 fluorescence intensity (a.u.)
GCTTGTTTCTTACCATACGGGTCCACACAAGCAACACATACGGAGTCACCTAGTGCAG	3520 fluorescence intensity (a.u.)
GAAATTCAAATTATACCAATTTAAATAGTTGGGATCAACACGGAGTCACCTAGTGCAG	21800 fluorescence intensity (a.u.)
GTTCAATAGTATAGCCAACGACTAGCTCCGATTCATTTATCGGAGTCACCTAGTGCAG	26800 fluorescence intensity (a.u.)
GGACGATGGCGAGAAGAGGACGACGATACTGTACGCGGGCCGGAGTCACCTAGTGCAG	4410 fluorescence intensity (a.u.)
TTAGTCTGAATGGAGCAACACCAGTCACCTTGATAGGATACGGAGTCACCTAGTGCAG	4700 fluorescence intensity (a.u.)
CTTCACTCGGTCCAGCCACCGCTCGCGCTACGCGCGCGTCCGGAGTCACCTAGTGCAG	3210 fluorescence intensity (a.u.)
ACTTCCTGGTTGGGCACACGTGTCTCCACGTGGTTGGTCCCGGAGTCACCTAGTGCAG	23100 fluorescence intensity (a.u.)
GCGACTACTCCGCCGTCCACGGTTCGTCGCTGTCGCCCGTCGGAGTCACCTAGTGCAG	3140 fluorescence intensity (a.u.)
TCTAATCAACCCAGTCACATTTTGAGTGGAGTCGACACCACGGAGTCACCTAGTGCAG	4360 fluorescence intensity (a.u.)
AATATAGGGTTCTTAATACGATAACGTAATTAAACATTTACGGAGTCACCTAGTGCAG	22400 fluorescence intensity (a.u.)
CGCCTGTCAGTGTGGACTGTGTCATACATTAGCAGCCGCTCGGAGTCACCTAGTGCAG	3640 fluorescence intensity (a.u.)
AAGTTATACTTAAAGTATTATAAATAATAAAGTAAGTCACCGGAGTCACCTAGTGCAG	34100 fluorescence intensity (a.u.)
TGGGAAGAAGGAACCTTAAACAATTTCTTGGTACACTACTCGGAGTCACCTAGTGCAG	28000 fluorescence intensity (a.u.)
AGCTTCAGCCGTGGCGTGGTGTCACCCTTCACCACGGCCACGGAGTCACCTAGTGCAG	19500 fluorescence intensity (a.u.)
TTTCATCACCACGTGTCTTCCGCGTATTAAGATGTAACCCCGGAGTCACCTAGTGCAG	7240 fluorescence intensity (a.u.)
ATAGCCGGCCCGGTGACGACATCCTCTGGATACACTCGCACGGAGTCACCTAGTGCAG	27500 fluorescence intensity (a.u.)
CCCTGCATGCGCCCGTATACCGTATGCCGCGCGCCCACTGCGGAGTCACCTAGTGCAG	3580 fluorescence intensity (a.u.)
TCATTTCTAATGTAAATTATCTTTTGCGTAAGTAATTTCTCGGAGTCACCTAGTGCAG	3230 fluorescence intensity (a.u.)
GAAGGGAGCCAAAAGAAGATGCAGCACTGCCGACGTGGAGCGGAGTCACCTAGTGCAG	8060 fluorescence intensity (a.u.)
CTCTAATTTATCTATAGCCAACCTAATAGCTCATTAATACCGGAGTCACCTAGTGCAG	7500 fluorescence intensity (a.u.)
AAGCTGAGGGACCTTCGGTGTACTTTTCCCCAGAATTTACCGGAGTCACCTAGTGCAG	35800 fluorescence intensity (a.u.)
CATCCACGCCGGAGACAGCCCATGCACCGATTCCACGGACCGGAGTCACCTAGTGCAG	3190 fluorescence intensity (a.u.)
GGCCACACATAACTTGTACCCCACCTGTCATCGTCACCGTCGGAGTCACCTAGTGCAG	5770 fluorescence intensity (a.u.)
TAGCAGAGGCAGAGACGATCAGACGAATGGCTGGCCTCTCCGGAGTCACCTAGTGCAG	22700 fluorescence intensity (a.u.)
